Reference: the supplement of paper PMC10849652
Some of the results follow.

The chains behind the UniProt entries cited, without tags or fusion partners. Where a name states a change or a piece, a line headed by the entry shows the natural chain unless it says otherwise.
UniProt P62942, whole entry, looked up: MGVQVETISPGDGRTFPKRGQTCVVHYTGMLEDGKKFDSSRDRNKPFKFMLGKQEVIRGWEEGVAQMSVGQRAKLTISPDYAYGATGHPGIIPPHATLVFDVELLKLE
UniProt Q86WN1: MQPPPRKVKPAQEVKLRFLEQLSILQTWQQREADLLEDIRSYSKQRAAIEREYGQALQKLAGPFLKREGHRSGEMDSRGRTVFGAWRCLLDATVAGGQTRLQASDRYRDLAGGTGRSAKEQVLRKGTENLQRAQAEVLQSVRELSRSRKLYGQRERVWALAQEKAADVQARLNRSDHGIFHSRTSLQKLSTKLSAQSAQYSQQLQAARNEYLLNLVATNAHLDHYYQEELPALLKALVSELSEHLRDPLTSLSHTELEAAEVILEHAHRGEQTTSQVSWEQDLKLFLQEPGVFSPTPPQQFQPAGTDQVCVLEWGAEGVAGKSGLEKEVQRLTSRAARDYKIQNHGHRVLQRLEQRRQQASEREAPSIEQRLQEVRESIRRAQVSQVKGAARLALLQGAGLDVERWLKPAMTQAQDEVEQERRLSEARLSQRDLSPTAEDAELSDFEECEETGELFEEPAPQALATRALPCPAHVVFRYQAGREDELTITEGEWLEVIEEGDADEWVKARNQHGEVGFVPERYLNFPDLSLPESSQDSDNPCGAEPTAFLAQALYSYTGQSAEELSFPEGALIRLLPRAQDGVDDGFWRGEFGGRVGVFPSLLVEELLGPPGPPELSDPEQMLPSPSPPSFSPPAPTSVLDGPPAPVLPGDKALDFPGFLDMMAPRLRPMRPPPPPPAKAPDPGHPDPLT
UniProt Q9UK22: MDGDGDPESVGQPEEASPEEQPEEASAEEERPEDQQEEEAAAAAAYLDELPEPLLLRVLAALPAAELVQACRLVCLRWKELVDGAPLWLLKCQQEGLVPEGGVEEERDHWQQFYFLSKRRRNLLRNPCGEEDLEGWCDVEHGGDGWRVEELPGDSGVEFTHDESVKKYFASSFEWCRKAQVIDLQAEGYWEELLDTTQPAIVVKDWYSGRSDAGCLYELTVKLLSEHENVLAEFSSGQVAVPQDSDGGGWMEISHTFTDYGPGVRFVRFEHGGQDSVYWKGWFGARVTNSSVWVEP
UniProt O14526: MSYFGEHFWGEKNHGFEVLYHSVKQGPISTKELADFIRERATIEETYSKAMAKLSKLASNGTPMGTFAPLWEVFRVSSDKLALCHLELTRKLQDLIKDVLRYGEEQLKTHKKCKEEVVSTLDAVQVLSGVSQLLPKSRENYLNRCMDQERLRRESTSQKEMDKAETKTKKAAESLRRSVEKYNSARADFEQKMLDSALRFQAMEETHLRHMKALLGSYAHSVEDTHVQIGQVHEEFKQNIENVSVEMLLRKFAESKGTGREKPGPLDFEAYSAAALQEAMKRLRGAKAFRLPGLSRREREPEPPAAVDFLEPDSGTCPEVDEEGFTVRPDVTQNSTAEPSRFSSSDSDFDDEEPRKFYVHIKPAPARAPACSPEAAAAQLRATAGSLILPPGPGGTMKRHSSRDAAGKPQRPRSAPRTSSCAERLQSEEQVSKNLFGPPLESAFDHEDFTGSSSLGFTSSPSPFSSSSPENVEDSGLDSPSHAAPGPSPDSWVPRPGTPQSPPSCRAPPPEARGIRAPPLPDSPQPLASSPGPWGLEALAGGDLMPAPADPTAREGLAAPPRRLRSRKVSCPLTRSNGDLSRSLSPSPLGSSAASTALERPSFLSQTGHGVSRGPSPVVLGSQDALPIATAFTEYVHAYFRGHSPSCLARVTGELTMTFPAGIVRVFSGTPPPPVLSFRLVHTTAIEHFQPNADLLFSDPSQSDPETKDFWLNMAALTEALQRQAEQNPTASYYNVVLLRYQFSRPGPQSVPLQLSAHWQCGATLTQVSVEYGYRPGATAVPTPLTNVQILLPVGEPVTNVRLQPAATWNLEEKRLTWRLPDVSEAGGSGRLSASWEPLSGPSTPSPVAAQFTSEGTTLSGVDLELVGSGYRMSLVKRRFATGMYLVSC
UniProt Q8TDW7: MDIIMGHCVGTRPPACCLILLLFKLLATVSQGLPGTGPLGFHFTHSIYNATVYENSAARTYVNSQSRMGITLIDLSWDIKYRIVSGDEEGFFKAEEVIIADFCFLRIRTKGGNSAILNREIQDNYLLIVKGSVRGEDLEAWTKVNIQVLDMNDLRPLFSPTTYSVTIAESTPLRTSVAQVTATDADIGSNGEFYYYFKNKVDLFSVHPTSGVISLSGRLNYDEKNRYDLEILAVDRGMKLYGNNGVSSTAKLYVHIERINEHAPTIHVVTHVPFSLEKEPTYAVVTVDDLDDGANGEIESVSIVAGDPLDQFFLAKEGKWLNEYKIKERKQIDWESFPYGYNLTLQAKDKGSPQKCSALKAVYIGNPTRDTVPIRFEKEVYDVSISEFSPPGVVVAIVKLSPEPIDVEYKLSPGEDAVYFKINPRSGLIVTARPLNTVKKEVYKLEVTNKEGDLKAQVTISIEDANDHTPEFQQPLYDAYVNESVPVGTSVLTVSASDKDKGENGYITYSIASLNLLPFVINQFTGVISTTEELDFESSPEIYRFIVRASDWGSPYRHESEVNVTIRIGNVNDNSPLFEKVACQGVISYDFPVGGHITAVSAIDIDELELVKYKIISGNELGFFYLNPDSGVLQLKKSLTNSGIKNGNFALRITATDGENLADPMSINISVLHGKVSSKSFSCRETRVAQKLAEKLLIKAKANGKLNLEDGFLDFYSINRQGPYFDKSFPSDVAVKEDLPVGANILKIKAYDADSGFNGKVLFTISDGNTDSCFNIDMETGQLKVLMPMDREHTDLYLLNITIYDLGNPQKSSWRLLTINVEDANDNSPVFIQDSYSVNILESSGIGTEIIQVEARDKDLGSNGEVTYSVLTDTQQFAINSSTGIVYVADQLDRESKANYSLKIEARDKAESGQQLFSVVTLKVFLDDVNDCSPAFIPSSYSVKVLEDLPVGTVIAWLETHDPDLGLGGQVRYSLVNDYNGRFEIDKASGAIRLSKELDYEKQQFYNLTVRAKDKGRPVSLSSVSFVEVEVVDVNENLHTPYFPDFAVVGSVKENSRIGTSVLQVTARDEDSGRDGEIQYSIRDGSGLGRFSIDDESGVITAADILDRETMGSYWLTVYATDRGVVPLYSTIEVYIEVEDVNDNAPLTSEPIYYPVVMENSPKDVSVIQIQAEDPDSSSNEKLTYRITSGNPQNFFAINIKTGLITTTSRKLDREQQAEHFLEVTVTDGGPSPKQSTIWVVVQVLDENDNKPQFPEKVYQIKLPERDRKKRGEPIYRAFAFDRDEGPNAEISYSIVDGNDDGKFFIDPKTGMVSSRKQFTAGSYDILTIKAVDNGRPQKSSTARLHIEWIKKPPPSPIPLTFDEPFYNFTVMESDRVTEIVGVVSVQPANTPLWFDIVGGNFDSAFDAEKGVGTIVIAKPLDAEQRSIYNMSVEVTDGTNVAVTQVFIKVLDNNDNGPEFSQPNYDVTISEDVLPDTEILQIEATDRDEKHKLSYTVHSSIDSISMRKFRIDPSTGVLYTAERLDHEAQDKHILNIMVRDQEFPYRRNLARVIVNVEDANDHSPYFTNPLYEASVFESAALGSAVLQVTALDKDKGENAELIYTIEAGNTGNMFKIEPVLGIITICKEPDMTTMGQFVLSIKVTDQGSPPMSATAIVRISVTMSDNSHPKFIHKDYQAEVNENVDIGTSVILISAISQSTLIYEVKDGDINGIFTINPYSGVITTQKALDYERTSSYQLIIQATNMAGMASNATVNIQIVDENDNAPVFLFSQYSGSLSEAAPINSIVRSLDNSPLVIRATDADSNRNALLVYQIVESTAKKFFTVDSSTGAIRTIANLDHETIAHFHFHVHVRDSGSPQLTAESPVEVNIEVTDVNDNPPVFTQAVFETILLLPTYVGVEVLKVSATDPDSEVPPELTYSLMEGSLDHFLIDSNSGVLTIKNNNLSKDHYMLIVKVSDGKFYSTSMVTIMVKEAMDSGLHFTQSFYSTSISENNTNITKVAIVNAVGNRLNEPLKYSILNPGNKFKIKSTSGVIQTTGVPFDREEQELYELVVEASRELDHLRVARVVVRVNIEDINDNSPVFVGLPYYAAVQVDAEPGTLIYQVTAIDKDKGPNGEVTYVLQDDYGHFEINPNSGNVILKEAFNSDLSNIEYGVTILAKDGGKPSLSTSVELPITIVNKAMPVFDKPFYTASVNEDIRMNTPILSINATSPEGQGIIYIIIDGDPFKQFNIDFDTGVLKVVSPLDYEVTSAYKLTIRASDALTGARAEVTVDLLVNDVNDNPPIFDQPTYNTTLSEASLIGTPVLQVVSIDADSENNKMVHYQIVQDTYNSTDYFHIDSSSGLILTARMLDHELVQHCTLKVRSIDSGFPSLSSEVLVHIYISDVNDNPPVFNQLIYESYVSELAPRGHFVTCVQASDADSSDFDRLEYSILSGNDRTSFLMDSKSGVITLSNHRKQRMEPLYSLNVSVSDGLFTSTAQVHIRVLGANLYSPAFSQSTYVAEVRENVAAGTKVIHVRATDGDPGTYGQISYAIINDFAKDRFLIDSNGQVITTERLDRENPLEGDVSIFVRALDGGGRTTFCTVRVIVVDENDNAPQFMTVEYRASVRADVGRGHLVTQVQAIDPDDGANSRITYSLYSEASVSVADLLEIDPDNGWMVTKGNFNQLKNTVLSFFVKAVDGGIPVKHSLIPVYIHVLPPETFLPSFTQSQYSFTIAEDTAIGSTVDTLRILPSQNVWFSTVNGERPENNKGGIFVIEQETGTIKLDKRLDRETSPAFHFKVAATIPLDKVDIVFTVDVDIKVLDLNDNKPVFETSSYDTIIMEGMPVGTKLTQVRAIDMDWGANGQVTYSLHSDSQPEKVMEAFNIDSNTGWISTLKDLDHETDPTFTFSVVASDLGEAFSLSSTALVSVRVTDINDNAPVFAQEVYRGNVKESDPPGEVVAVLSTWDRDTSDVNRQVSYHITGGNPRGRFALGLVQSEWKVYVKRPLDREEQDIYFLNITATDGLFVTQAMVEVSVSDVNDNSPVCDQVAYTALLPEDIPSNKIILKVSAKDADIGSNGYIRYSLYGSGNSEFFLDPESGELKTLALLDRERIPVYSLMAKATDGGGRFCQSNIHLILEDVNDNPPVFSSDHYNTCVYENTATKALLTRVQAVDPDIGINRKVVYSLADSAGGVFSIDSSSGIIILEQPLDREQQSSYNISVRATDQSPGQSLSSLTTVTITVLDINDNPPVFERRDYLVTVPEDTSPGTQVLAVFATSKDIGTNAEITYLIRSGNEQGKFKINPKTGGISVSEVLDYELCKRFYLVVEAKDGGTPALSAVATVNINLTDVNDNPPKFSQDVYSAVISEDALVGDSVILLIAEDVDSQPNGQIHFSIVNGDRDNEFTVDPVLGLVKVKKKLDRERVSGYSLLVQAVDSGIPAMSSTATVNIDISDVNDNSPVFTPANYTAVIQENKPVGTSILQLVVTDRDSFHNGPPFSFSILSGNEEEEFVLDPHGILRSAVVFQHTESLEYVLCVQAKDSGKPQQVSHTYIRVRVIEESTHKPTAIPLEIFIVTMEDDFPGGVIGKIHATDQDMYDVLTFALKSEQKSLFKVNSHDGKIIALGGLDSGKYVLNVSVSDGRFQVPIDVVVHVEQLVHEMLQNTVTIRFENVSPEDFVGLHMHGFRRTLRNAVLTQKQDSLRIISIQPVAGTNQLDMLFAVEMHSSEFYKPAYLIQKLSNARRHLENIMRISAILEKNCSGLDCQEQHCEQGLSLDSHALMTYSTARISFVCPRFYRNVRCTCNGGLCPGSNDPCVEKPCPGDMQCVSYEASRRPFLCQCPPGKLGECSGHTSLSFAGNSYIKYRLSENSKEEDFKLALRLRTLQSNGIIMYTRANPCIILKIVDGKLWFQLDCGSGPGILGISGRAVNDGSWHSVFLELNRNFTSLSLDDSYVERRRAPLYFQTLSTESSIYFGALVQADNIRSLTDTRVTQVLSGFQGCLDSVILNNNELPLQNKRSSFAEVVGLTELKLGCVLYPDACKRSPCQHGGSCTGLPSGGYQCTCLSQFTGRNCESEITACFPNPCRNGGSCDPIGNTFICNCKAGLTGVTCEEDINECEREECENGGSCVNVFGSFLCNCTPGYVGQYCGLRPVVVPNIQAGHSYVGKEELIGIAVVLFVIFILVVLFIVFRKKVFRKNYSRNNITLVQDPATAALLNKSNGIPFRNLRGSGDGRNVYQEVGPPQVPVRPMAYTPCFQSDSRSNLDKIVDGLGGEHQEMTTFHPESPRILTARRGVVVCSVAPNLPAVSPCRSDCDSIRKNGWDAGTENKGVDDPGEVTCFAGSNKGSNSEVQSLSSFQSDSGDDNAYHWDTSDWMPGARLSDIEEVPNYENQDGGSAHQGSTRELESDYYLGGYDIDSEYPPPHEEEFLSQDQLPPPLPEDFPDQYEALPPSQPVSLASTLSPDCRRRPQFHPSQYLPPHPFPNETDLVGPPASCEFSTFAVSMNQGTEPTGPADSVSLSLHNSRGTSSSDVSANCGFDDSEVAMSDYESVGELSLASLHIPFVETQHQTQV

Assays:
Assay in all cases: log2 fold change, soluble protein after heating vs DMSO (PISA); higher = thermal stabilisation; K562 lysate, 10 uM; active = over 0.2 and 3.5 SD of the protein, either way, in both replicates (recomputed)
[1] = compound: C=CC(=O)N1CCC[C@@H](n2nc(-c3ccc(Oc4ccccc4)cc3)c3c(N)ncnc32)C1 [ibrutinib]
How it was run: (§1)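 Thermal stability, expressed as log-two fold change relative to solvent controls, is given from duplicates. Crude K562 extract in PBS pH 7.4 with 1 mM MgCl2, at 1 mg/mL protein, was treated with 10 μM compound for 30 min and heated in aliquots for 3 min across 48°C-58°C. After pooling, adjustment to 0.5% NP-40 at 4°C and centrifugation at 21,000xg for 90 min, supernatant protein was measured by TMTpro 16plex LC-MS/MS with channel sums equalised.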

[2] = compound: CC(=O)c1cnc2ccc(-c3cc(Cl)c(O)c(Cl)c3)nc2c1N[C@H]1CC[C@H](CN(C)C)CC1
How it was run: as §1

[3] = compound: CC(C)(C)Cn1c(N)nc2ccc(-c3[nH]c(C(C)(C)C)nc3-c3ccc(F)cc3)nc21 [ralimetinib]
How it was run: as §1

[4] = compound: CC(C)(O)CC(=O)NCCn1ccc2ncnc(Nc3ccc(Oc4cccc(C(F)(F)F)c4)c(Cl)c3)c21
How it was run: as §1

[5] = compound: CC(C)C1=C2N=C(C=C(N2N=C1)NCC3=CC=CC=C3)NCCCCCCN
How it was run: as §1

[6] = compound: CC1=C(C(CC(=O)N1)C2=CC=C(C=C2)C(F)(F)F)C(=O)NC3=C(C=C4C(=C3)C=NN4)F
How it was run: as §1

[7] = compound: CC1=C(C2=C(C=C1)C(=O)C3=CC=CC=C3N2CCCN)C
How it was run: as §1

[8] = compound: CC1=C(C=C(C=C1)NC(=O)C2=CC(=CC=C2)C(C)(C)C#N)NC3=CC4=C(C=C3)N=CN(C4=O)C
How it was run: as §1

[9] = compound: CC1=C(C=C(C=C1)NC(=O)C2=CC(=CC=C2)N(C)C)NC(=O)C3=CC=C(C=C3)O
How it was run: as §1

[10] = compound: CC1=CC=C(C=C1)SC2=C3C=C(SC3=CN=C2)C(=O)N
How it was run: as §1

Measured: log2 fold change

FDFT1 (UniProt P37268)
inactive: [1] -0.004 | [2] -0.014 | [3] -0.014 | [4] 0.018 | [5] 0.013 | [6] -0.034 | [7] -0.028 | [8] -0.02 | [9] 0.017 | [10] 0.012

FARSB (UniProt Q9NSD9)
inactive: [1] 0.021 | [2] -0.013 | [3] -0.006 | [4] 0.016 | [5] 0.004 | [6] -0.023 | [7] 0.007 | [8] 0.033 | [9] 0.008 | [10] 0.03

FKBP1A (UniProt P62942)
inactive: [1] 0.083 | [2] -0.103 | [3] 0.188 | [4] -0.054 | [5] 0.049 | [6] -0.022 | [7] -0.013 | [8] 0.084 | [9] 0.018 | [10] 0.187

Two entries drawn at random from those above, as already listed:
FDFT1 (UniProt P37268)
inactive: [1] -0.004 | [2] -0.014 | [3] -0.014 | [4] 0.018 | [5] 0.013 | [6] -0.034 | [7] -0.028 | [8] -0.02 | [9] 0.017 | [10] 0.012

FARSB (UniProt Q9NSD9)
inactive: [1] 0.021 | [2] -0.013 | [3] -0.006 | [4] 0.016 | [5] 0.004 | [6] -0.023 | [7] 0.007 | [8] 0.033 | [9] 0.008 | [10] 0.03

(list continues)

FAM98A (UniProt Q8NCA5)
inactive: [1] -0.033 | [2] -0.019 | [3] 0.046 | [4] 0.008 | [5] 0.014 | [6] 0.04 | [7] -0.045 | [8] 0.008 | [9] 0.035 | [10] 0.029

FGFR1OP (UniProt O95684)
inactive: [1] 0.012 | [2] -0.006 | [3] 0.022 | [4] -0.019 | [5] 0.002 | [6] 0.01 | [7] 0.015 | [8] -0.004 | [9] -0.011 | [10] -0.012

FHL2 (UniProt Q14192)
inactive: [1] 0.008 | [2] 0 | [3] 0.012 | [4] -0.053 | [5] -0.036 | [6] 0 | [7] -0.013 | [8] 0.18 | [9] 0.004 | [10] 0.002

FCHSD1 (UniProt Q86WN1)
inactive: [1] 0.048 | [2] 0.005 | [3] 0.058 | [4] 0.068 | [5] -0.006 | [6] 0.052 | [7] 0.013 | [8] 0.027 | [9] 0.094 | [10] 0.022

FBXO5 (UniProt Q9UKT4)
inactive: [1] 0.02 | [2] -0.125 | [3] 0.058 | [4] -0.022 | [5] 0.128 | [6] 0.064 | [7] -0.023 | [8] 0.015 | [9] -0.013 | [10] 0.101

FBXO2 (UniProt Q9UK22)
inactive: [1] 0.033 | [2] -0.026 | [3] 0.029 | [4] 0.105 | [5] -0.108 | [6] -0.087 | [7] -0.006 | [8] 0.065 | [9] -0.082 | [10] -0.017

FNTB (UniProt P49356)
inactive: [1] -0.018 | [2] 0.005 | [3] 0.03 | [4] -0.013 | [5] -0.022 | [6] -0.036 | [7] -0.026 | [8] -0.011 | [9] 0.038 | [10] -0.013

FAR1 (UniProt Q8WVX9)
inactive: [1] 0.035 | [2] -0.127 | [3] 0.017 | [4] -0.119 | [5] 0.117 | [6] 0.011 | [7] 0.031 | [8] -0.008 | [9] 0.006 | [10] -0.067

FBXO38 (UniProt Q6PIJ6)
inactive: [1] -0.042 | [2] 0.063 | [3] 0.083 | [4] 0.009 | [5] -0.078 | [6] -0.037 | [7] -0.073 | [8] -0.098 | [9] 0.009 | [10] 0.175

FKBP5 (UniProt Q13451)
inactive: [1] -0.014 | [2] -0.009 | [3] 0.012 | [4] 0.002 | [5] -0.002 | [6] -0.025 | [7] -0.008 | [8] -0.008 | [9] 0.015 | [10] -0.012

FIBP (UniProt O43427)
inactive: [1] 0.015 | [2] 0.02 | [3] 0.032 | [4] -0.026 | [5] 0.028 | [6] 0.057 | [7] 0.036 | [8] 0.01 | [9] 0.024 | [10] 0.011

FBXL20 (UniProt Q96IG2)
inactive: [1] 0.046 | [2] -0.026 | [3] -0.014 | [4] 0 | [5] -0.01 | [6] -0.067 | [7] -0.01 | [8] 0.013 | [9] 0.027 | [10] -0.032

FBLL1 (UniProt A6NHQ2)
inactive: [1] -0.042 | [2] -0.031 | [3] 0.029 | [4] -0.056 | [5] -0.014 | [6] 0.001 | [7] -0.121 | [8] 0.006 | [9] 0.049 | [10] -0.018

FBXO6 (UniProt Q9NRD1)
inactive: [1] 0.039 | [2] -0.005 | [3] 0.021 | [4] -0.02 | [5] -0.012 | [6] -0.008 | [7] 0.007 | [8] 0.001 | [9] -0.053 | [10] -0.001

FEM1B (UniProt Q9UK73)
inactive: [1] -0.071 | [2] 0.09 | [3] -0.002 | [4] -0.046 | [5] -0.025 | [6] 0.026 | [7] -0.057 | [8] 0.013 | [9] 0.064 | [10] 0.023

FDX2 (UniProt Q6P4F2)
inactive: [1] 0.056 | [2] -0.025 | [3] -0.047 | [4] -0.194 | [5] -0.039 | [6] 0.01 | [7] -0.018 | [8] 0.015 | [9] 0.05 | [10] 0.006

FANCB (UniProt Q8NB91)
inactive: [1] 0.027 | [2] 0.06 | [3] 0.026 | [4] 0.012 | [5] 0.02 | [6] -0.106 | [7] -0.031 | [8] 0.005 | [9] -0.007 | [10] -0.029

FBXO7 (UniProt Q9Y3I1)
inactive: [1] -0.002 | [2] -0.018 | [3] -0.003 | [4] -0.022 | [5] 0.02 | [6] 0.034 | [7] -0.003 | [8] -0.007 | [9] 0.018 | [10] -0.002

FAM98B (UniProt Q52LJ0)
inactive: [1] -0.003 | [2] 0.013 | [3] 0.036 | [4] -0.024 | [5] 0.008 | [6] -0.037 | [7] 0.016 | [8] 0.023 | [9] 0.033 | [10] -0.025

FCHO1 (UniProt O14526)
inactive: [1] -0.053 | [2] 0.022 | [3] 0.018 | [4] 0.014 | [5] 0.013 | [6] 0.031 | [7] 0.018 | [8] 0.002 | [9] 0.004 | [10] 0.041

FLCN (UniProt Q8NFG4)
inactive: [1] 0.033 | [2] -0.01 | [3] 0.051 | [4] -0.113 | [5] -0.061 | [6] 0.002 | [7] 0.001 | [8] 0.055 | [9] -0.016 | [10] -0.053

FBXL18 isoform 4 (UniProt Q96ME1)
inactive: [1] -0.008 | [2] 0.015 | [3] -0.005 | [4] -0.023 | [5] -0.015 | [6] 0.006 | [7] -0.028 | [8] -0.029 | [9] 0.013 | [10] -0.001

FHL3 (UniProt Q13643)
inactive: [1] 0.022 | [2] -0.013 | [3] 0.015 | [4] -0.01 | [5] -0.045 | [6] -0.012 | [7] -0.026 | [8] 0.012 | [9] -0.026 | [10] -0.007

FAT3 isoform 1 (UniProt Q8TDW7)
inactive: [1] 0.022 | [2] 0.011 | [3] -0.018 | [4] 0.071 | [5] 0.043 | [6] 0.055 | [7] -0.125 | [8] -0.009 | [9] 0.06 | [10] 0.049

FARSA (UniProt Q9Y285)
inactive: [1] -0.006 | [2] -0.02 | [3] 0.048 | [4] 0.025 | [5] 0.06 | [6] -0.014 | [7] -0.063 | [8] 0.055 | [9] 0 | [10] 0.006

FIP1L1 (UniProt Q6UN15)
inactive: [1] 0.076 | [2] -0.006 | [3] -0.016 | [4] -0.039 | [5] 0.013 | [6] 0.018 | [7] 0.024 | [8] -0.19 | [9] 0.004 | [10] 0.021
